At least one compound was matched to its structure with a doubt left.
Tested on: M. furfur CBS 1878
Test: Agar diffusion assay on pigment-inducing medium (p-agar) with TRP as sole nitrogen source
Type: cell-based, Malassezia furfur
Details: unbuffered or buffered (pH 5.0)
Method: The pigment-inducing medium (p-agar) is composed of (for 1 liter medium)
After autoclaving for 30 min at 1 bar, the following is added:
At approx. 50° C., the following heat-labile component is added:
The pH value is approximately pH 5.0.
Each 25 ml of the medium are poured into petri dishes with a diameter of 10 cm. A suspension of M. furfur CBS 1878 (approx. 5 inoculation loops of a strain previously grown on Dixon's agar) is suspended in 1 ml aq. dest., transferred to the p-agar and spread by tilting the plate. […] The pigment composition can be determined after extraction and separation via thin layer chromatography.
For this purpose, M. furfur CBS 1878 is spread on the surface of an agar plate with pigment-inducing medium as describe above, subsequently 4 mm-holes are punched into the agar using a sterile punch. […] The agar diffusion assay is performed with transaminase inhibitor e.g. aminooxyacetate (Sigma) in water, which is adjusted to pH 5 with 1 n NaOH. Concentrations are 0.05 molar top left; 0.1 molar top right; 0.25 molar bottom left, and 0.5 molar bottom right.

SMILES: Cl.NOCC(=O)O.NOCC(=O)O [aminooxyacetate, O-(carboxymethyl)hydroxylamine hemihydrochloride]
- concentrations showing efficacy in agar diffusion assays: 0.05 to >0.5
